The other results are listed elsewhere or left out.
How the values were obtained:
Experiment in all cases: log2 fold change, soluble protein after heating vs DMSO (PISA); higher = thermal stabilisation; K562 cells, 10 uM, 30 min; active = over 0.2 and 3.5 SD of the protein, either way, in both replicates (recomputed)
[1] = compound: CC1=C(C=C(C=C1)NC(=O)C2=CC(=CC=C2)C(C)(C)C#N)NC3=CC4=C(C=C3)N=CN(C4=O)C
Procedure, shortened: (§1)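 Soluble protein was quantified by TMTpro 16plex LC-MS/MS after channel sums were equalised. It was obtained as the supernatant after 21,000xg for 90 min from pooled aliquots of K562 cells (2×10^6 cells/mL, 10 μM compound, 30 min) heated for 3 min across 48°C-58°C and extracted in PBS with 0.5% NP-40 at 4°C. Thermal stability values are relative to control samples and come from duplicates. They are given as log2 fold changes.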

Amino acid sequences for entries named in this document (tags omitted). A change or cut given only in a name is not applied to a line headed by its entry.
UniProt Q9BZD2: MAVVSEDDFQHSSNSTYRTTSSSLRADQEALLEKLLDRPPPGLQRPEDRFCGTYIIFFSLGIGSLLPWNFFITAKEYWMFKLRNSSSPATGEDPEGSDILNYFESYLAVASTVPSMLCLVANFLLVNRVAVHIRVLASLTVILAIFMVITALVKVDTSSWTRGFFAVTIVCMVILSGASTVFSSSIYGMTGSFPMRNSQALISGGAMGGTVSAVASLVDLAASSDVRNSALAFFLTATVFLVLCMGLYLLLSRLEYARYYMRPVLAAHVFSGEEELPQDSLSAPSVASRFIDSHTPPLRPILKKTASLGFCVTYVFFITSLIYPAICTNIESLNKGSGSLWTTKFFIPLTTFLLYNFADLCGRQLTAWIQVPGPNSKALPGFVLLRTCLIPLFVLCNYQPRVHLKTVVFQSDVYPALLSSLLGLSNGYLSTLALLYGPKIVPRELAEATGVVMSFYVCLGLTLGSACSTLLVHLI
UniProt Q99808: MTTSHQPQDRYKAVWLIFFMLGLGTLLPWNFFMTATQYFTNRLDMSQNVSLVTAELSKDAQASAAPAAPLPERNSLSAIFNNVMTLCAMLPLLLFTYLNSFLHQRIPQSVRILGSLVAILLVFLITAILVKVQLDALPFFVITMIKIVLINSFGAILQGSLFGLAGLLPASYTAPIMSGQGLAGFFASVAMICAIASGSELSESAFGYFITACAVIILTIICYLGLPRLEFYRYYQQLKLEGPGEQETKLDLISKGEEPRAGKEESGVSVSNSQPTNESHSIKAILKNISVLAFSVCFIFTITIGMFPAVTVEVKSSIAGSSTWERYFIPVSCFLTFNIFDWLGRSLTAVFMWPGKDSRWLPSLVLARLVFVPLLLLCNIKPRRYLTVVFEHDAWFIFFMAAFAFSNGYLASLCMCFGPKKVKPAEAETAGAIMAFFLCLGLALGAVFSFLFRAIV
UniProt P53794: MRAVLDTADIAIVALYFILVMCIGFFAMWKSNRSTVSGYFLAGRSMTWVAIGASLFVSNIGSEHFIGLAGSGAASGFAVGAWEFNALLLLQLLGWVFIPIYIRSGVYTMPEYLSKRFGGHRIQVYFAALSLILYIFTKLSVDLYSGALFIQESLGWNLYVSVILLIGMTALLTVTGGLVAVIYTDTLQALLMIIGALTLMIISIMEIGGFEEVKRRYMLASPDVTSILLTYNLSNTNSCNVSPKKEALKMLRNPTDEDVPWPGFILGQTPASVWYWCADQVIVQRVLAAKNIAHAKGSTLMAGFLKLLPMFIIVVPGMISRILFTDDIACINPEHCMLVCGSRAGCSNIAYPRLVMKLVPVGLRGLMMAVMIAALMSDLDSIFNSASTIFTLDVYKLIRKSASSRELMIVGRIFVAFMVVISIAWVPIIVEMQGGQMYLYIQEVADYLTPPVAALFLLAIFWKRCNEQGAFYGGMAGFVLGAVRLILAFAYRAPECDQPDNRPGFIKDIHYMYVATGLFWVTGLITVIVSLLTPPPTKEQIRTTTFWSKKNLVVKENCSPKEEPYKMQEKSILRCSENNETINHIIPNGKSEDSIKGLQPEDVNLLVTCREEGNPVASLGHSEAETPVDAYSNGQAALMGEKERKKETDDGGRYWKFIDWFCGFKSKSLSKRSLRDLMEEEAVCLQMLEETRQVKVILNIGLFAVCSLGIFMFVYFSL
UniProt Q6P1M0: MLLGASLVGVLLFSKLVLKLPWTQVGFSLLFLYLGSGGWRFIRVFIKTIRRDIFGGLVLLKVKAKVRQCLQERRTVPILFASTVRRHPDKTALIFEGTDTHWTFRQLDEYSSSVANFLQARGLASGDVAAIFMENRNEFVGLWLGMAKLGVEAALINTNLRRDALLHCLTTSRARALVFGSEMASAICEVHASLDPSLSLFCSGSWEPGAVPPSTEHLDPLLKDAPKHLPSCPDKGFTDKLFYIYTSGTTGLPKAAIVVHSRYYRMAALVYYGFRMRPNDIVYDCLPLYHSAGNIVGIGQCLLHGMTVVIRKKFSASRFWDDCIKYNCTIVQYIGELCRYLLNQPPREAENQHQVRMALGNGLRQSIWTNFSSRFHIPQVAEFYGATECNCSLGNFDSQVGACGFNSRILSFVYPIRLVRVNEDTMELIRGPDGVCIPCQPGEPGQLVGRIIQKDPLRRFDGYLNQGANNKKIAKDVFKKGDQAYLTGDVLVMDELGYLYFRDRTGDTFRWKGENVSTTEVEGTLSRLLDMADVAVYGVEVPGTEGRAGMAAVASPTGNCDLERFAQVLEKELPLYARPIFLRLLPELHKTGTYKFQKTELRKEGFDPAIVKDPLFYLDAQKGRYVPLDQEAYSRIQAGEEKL
UniProt Q96DW6: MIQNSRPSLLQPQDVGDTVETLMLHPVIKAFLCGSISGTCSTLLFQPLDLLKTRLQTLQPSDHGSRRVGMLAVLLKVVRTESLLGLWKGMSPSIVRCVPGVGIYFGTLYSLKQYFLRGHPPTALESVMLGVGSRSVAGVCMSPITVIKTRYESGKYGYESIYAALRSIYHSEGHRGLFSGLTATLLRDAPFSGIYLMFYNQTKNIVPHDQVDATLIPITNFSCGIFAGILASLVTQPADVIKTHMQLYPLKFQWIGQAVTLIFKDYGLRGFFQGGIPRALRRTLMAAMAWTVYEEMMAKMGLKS
UniProt Q9NP59: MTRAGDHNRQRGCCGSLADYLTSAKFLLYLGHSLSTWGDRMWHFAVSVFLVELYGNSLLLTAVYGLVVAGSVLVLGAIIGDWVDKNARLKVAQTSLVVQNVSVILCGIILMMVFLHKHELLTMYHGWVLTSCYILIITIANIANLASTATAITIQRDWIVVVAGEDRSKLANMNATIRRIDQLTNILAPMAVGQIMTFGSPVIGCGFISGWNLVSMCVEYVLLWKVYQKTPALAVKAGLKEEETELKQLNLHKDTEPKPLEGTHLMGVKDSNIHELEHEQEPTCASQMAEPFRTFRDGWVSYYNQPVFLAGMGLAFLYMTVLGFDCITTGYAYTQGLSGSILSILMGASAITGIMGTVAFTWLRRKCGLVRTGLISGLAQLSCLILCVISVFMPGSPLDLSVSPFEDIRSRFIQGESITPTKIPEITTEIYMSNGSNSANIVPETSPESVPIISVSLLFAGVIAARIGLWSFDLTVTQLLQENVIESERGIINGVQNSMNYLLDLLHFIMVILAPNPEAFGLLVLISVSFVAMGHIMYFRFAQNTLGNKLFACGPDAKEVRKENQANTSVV
UniProt Q9NVC3: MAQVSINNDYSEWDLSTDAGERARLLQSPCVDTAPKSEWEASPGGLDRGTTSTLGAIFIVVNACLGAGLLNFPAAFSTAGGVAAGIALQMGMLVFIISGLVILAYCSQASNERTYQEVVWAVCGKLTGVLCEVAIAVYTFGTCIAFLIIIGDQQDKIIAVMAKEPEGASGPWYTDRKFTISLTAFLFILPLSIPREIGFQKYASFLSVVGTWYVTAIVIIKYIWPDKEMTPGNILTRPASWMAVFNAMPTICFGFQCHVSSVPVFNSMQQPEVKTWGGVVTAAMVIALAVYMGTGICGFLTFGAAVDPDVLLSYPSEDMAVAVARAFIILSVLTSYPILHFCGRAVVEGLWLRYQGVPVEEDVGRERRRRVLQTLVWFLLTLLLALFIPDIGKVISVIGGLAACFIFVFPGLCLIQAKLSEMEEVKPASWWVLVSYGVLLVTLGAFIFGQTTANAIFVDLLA
UniProt Q8TBP6: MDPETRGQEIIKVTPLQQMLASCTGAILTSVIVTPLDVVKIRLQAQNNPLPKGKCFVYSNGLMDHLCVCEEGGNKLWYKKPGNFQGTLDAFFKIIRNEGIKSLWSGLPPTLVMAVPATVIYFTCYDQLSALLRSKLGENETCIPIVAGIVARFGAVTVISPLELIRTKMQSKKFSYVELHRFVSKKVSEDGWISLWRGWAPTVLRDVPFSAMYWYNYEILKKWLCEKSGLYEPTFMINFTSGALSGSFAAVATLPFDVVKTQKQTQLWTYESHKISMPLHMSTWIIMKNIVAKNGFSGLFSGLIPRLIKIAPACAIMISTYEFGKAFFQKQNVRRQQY
UniProt Q8TB61: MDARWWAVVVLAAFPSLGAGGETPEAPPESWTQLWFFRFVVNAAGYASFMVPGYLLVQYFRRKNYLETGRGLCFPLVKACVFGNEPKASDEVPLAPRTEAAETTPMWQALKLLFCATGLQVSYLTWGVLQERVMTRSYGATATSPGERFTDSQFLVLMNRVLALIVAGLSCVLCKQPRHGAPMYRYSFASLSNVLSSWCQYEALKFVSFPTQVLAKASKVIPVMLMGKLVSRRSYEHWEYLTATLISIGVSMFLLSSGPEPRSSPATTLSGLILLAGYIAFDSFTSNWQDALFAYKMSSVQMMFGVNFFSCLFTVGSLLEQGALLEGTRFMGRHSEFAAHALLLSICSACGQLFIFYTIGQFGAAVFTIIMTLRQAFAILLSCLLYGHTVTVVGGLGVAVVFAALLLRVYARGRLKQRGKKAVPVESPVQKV
UniProt Q70HW3: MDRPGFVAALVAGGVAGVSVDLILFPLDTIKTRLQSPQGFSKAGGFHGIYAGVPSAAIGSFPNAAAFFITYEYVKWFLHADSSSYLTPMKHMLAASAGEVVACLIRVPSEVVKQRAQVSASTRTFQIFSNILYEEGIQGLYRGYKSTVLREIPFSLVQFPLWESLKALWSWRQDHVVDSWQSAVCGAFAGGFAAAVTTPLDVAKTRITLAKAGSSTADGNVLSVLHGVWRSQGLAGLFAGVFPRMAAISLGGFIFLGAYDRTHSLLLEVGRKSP
UniProt O75387: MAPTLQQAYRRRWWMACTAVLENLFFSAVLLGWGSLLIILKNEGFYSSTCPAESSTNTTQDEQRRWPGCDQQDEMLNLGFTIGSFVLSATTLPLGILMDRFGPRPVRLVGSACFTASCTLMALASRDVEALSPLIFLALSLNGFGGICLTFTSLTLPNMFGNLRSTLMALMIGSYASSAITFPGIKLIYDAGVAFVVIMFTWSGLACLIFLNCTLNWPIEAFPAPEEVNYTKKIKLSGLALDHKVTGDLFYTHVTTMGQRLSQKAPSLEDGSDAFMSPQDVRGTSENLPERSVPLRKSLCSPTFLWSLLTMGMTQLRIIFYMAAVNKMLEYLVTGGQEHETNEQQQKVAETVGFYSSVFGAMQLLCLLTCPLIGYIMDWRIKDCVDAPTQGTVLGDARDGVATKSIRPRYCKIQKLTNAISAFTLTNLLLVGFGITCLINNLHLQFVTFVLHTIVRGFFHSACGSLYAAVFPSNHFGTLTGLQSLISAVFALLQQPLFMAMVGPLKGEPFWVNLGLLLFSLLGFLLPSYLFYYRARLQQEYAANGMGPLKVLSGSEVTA
UniProt Q9H1N7: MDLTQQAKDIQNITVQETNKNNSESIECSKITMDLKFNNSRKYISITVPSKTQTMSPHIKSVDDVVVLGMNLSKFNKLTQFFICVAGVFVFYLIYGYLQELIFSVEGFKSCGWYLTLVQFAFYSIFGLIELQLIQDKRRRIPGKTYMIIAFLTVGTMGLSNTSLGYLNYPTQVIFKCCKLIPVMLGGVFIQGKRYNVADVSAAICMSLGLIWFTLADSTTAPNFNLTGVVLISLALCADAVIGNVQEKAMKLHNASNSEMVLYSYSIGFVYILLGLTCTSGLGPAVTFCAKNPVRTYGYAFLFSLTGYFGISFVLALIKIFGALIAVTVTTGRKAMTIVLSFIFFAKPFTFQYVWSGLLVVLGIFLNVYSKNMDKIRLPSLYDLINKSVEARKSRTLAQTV
UniProt Q8NBI5: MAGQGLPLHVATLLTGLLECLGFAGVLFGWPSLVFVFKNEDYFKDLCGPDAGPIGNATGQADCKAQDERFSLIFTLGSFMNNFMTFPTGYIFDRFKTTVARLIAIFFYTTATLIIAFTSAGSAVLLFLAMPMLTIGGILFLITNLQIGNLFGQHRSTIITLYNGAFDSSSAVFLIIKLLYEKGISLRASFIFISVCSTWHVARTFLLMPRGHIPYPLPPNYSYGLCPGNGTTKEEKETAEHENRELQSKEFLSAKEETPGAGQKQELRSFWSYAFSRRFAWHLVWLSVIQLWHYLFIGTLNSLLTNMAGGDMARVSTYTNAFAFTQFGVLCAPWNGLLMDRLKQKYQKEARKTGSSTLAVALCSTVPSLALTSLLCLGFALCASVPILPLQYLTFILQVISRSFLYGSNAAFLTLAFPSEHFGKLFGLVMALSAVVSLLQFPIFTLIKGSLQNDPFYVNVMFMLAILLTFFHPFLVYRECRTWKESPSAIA
UniProt Q92504: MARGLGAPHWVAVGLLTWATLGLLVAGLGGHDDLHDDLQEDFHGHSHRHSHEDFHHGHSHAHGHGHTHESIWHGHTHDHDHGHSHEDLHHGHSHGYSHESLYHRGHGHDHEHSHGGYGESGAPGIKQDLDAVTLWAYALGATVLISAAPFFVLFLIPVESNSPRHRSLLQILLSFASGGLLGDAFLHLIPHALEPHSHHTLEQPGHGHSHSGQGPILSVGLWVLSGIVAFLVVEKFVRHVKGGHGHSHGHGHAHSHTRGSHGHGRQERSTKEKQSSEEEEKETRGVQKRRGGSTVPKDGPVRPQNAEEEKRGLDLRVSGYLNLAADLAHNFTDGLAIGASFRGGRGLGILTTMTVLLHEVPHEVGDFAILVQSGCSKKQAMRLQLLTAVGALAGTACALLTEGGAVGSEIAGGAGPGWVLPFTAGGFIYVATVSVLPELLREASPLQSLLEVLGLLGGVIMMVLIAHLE

[2] = compound: CC1=C(C=C(C=C1)NC(=O)C2=CC(=CC=C2)N(C)C)NC(=O)C3=CC=C(C=C3)O
Procedure, shortened: as §1

[3] = compound: CC1=CC=C(C=C1)SC2=C3C=C(SC3=CN=C2)C(=O)N
Procedure, shortened: as §1

[4] = compound: CC1=NC(=CC=C1)C2=C(N=C(N2)C(C)(C)C)C3=CC4=NC=CN=C4C=C3
Procedure, shortened: as §1

Nexturastat A = compound: CCCCN(Cc1ccc(C(=O)NO)cc1)C(=O)Nc1ccccc1 [Nexturastat A]
Procedure, shortened: as §1

vemurafenib = compound: CCCS(=O)(=O)Nc1ccc(F)c(C(=O)c2c[nH]c3ncc(-c4ccc(Cl)cc4)cc23)c1F [vemurafenib]
Procedure, shortened: as §1

[5] = compound: CCCS(=O)(=O)Nc1ccc(F)c(C(=O)c2c[nH]c3ncc(Cl)cc23)c1F
Procedure, shortened: as §1

[6] = compound: CCCc1cc(C)[nH]c(=O)c1CNC(=O)c1cc(-c2ccnc(N3CCN(C)CC3)c2)cc2c1cnn2C(C)C
Procedure, shortened: as §1

givinostat = compound: CCN(CC)Cc1ccc2cc(COC(=O)Nc3ccc(C(=O)NO)cc3)ccc2c1 [givinostat]
Procedure, shortened: as §1

barasertib = compound: CCN(CCCOc1ccc2c(Nc3cc(CC(=O)Nc4cccc(F)c4)[nH]n3)ncnc2c1)CCOP(=O)(O)O [barasertib]
Procedure, shortened: as §1

Measured: log2 fold change

SLC33A1 (UniProt O00400)
inactive: [1] 0.018 | [2] -0.053 | [3] -0.023 | [4] 0.013 | Nexturastat A -0.113 | vemurafenib 0.016 | [5] 0.005 | [6] -0.006 | givinostat 0.035 | barasertib 0.01

SLC4A1 (UniProt P02730)
inactive: [1] 0.014 | [2] 0.071 | [3] -0.108 | [4] -0.01 | Nexturastat A -0.019 | vemurafenib -0.103 | [5] -0.098 | [6] -0.051 | givinostat -0.03 | barasertib 0.046

SLC25A22 (UniProt Q9H936)
inactive: [1] 0.007 | [2] 0 | [3] -0.009 | [4] 0.002 | Nexturastat A -0.099 | vemurafenib -0.04 | [5] -0.018 | [6] -0.049 | givinostat -0.012 | barasertib -0.011

SLC7A1 (UniProt P30825)
inactive: [1] 0.006 | [2] 0.04 | [3] -0.008 | [4] -0.01 | Nexturastat A -0.052 | vemurafenib 0.009 | [5] 0.007 | [6] -0.036 | givinostat 0.015 | barasertib -0.002

Quoted from the results shown (two entries):
SLC33A1 (UniProt O00400)
inactive: [1] 0.018 | [2] -0.053 | [3] -0.023 | [4] 0.013 | Nexturastat A -0.113 | vemurafenib 0.016 | [5] 0.005 | [6] -0.006 | givinostat 0.035 | barasertib 0.01

SLC4A1 (UniProt P02730)
inactive: [1] 0.014 | [2] 0.071 | [3] -0.108 | [4] -0.01 | Nexturastat A -0.019 | vemurafenib -0.103 | [5] -0.098 | [6] -0.051 | givinostat -0.03 | barasertib 0.046

Continued.

SLC29A3 (UniProt Q9BZD2)
inactive: [1] 0.005 | [2] -0.023 | [3] 0.089 | [4] 0 | Nexturastat A 0.124 | vemurafenib -0.097 | [5] -0.128 | [6] 0.017 | givinostat 0.005 | barasertib -0.016

SLC38A1 (UniProt Q9H2H9)
inactive: [1] 0.028 | [2] 0.031 | [3] 0.016 | [4] -0.007 | Nexturastat A -0.018 | vemurafenib -0.032 | [5] 0 | [6] -0.192 | givinostat -0.05 | barasertib 0

SLC29A1 isoform 2 (UniProt Q99808)
inactive: [1] -0.018 | [2] -0.034 | [3] 0.026 | [4] 0.013 | Nexturastat A -0.035 | vemurafenib -0.007 | [5] 0.015 | [6] -0.002 | givinostat -0.059 | barasertib -0.041

SLC5A3 (UniProt P53794)
inactive: [1] 0.008 | [2] 0.02 | [3] 0.081 | [4] -0.016 | Nexturastat A -0.052 | vemurafenib -0.012 | [5] -0.03 | [6] -0.056 | givinostat 0.016 | barasertib 0.042

SLC27A4 (UniProt Q6P1M0)
inactive: [1] -0.074 | [2] -0.072 | [3] 0.011 | [4] -0.096 | Nexturastat A -0.014 | vemurafenib -0.039 | [5] -0.031 | [6] -0.017 | givinostat 0.021 | barasertib 0.056

SLC25A38 (UniProt Q96DW6)
inactive: [1] 0.075 | [2] -0.011 | [3] -0.047 | [4] 0.076 | Nexturastat A -0.012 | vemurafenib -0.059 | [5] -0.019 | [6] -0.145 | givinostat -0.004 | barasertib 0.014

SLC12A2 (UniProt P55011)
inactive: [1] 0.013 | [2] -0.009 | [3] 0.007 | [4] -0.027 | Nexturastat A 0.01 | vemurafenib 0.015 | [5] -0.003 | [6] -0.026 | givinostat -0.004 | barasertib -0.019

SLC26A6 (UniProt Q9BXS9)
inactive: [1] -0.074 | [2] 0.016 | [3] -0.15 | [4] 0.024 | Nexturastat A -0.077 | vemurafenib -0.01 | [5] -0.006 | [6] -0.057 | givinostat -0.1 | barasertib -0.024

SLC40A1 (UniProt Q9NP59)
inactive: [1] -0.066 | [2] -0.028 | [3] 0.028 | [4] -0.05 | Nexturastat A 0.099 | vemurafenib 0.053 | [5] -0.049 | [6] -0.1 | givinostat -0.067 | barasertib 0.1

SLC38A7 (UniProt Q9NVC3)
inactive: [1] 0.092 | [2] 0.009 | [3] 0 | [4] 0.094 | Nexturastat A -0.04 | vemurafenib 0.042 | [5] 0.012 | [6] -0.002 | givinostat 0.008 | barasertib -0.012

SLC25A40 (UniProt Q8TBP6)
inactive: [1] -0.029 | [2] 0.032 | [3] -0.032 | [4] 0.033 | Nexturastat A 0.088 | vemurafenib 0.017 | [5] -0.06 | [6] 0.033 | givinostat -0.002 | barasertib -0.014

SLC35B2 (UniProt Q8TB61)
inactive: [1] 0.041 | [2] -0.009 | [3] 0.123 | [4] -0.021 | Nexturastat A 0.011 | vemurafenib -0.056 | [5] 0.058 | [6] -0.011 | givinostat -0.014 | barasertib 0.009

SLC30A1 (UniProt Q9Y6M5)
inactive: [1] -0.01 | [2] -0.016 | [3] -0.056 | [4] 0.009 | Nexturastat A -0.069 | vemurafenib 0.018 | [5] -0.04 | [6] -0.076 | givinostat 0.006 | barasertib -0.014

SLC1A4 (UniProt P43007)
inactive: [1] -0.005 | [2] -0.059 | [3] -0.016 | [4] -0.064 | Nexturastat A 0.043 | vemurafenib -0.047 | [5] 0.045 | [6] -0.039 | givinostat 0.02 | barasertib -0.024

SLC4A7 isoform 7 (UniProt Q9Y6M7)
inactive: [1] -0.058 | [2] -0.049 | [3] 0.014 | [4] -0.053 | Nexturastat A -0.111 | vemurafenib -0.119 | [5] -0.078 | [6] 0.001 | givinostat 0.027 | barasertib 0.032

SLC12A5 (UniProt Q9H2X9)
inactive: [1] 0.074 | [3] 0.108 | [4] 0.198 | Nexturastat A 0.001 | vemurafenib -0.105 | [5] 0.081 | [6] -0.018 | givinostat 0.016 | barasertib -0.004

SLC25A26 (UniProt Q70HW3)
inactive: [1] -0.017 | [2] 0.145 | [4] 0.09 | Nexturastat A -0.102 | vemurafenib 0.005 | [6] -0.09 | givinostat -0.019 | barasertib 0.024

SLC2A13 (UniProt Q96QE2)
inactive: [1] -0.004 | [2] 0.046 | [3] 0.176 | Nexturastat A -0.079 | vemurafenib -0.015 | [5] -0.192 | givinostat -0.072 | barasertib 0.17

SLC43A1 (UniProt O75387)
inactive: [1] -0.042 | [2] -0.036 | [3] 0.009 | [4] -0.018 | Nexturastat A -0.168 | vemurafenib 0.074 | [5] 0.01 | [6] -0.04 | givinostat -0.039 | barasertib 0.026

SLC35B3 (UniProt Q9H1N7)
inactive: [1] -0.071 | [2] 0.031 | [4] 0.014 | Nexturastat A 0.166 | vemurafenib -0.042 | [6] 0.033 | givinostat -0.109 | barasertib -0.005

SLC6A8 (UniProt P48029)
inactive: [1] 0.049 | [2] -0.019 | [3] -0.087 | [4] -0.002 | Nexturastat A -0.01 | vemurafenib 0.026 | [5] -0.08 | [6] -0.047 | givinostat -0.026 | barasertib -0.01

SLC43A3 (UniProt Q8NBI5)
inactive: [1] -0.11 | [3] -0.024 | Nexturastat A -0.052 | [5] -0.058

SLC6A9 (UniProt P48067)
inactive: [1] 0.071 | [2] 0.014 | [3] -0.016 | [4] -0.091 | vemurafenib -0.014 | [5] -0.033 | [6] -0.018 | givinostat -0.059 | barasertib 0.023

SLC17A5 (UniProt Q9NRA2)
inactive: [1] 0.121 | [2] -0.121 | [3] -0.167 | [4] 0.082 | [5] 0.01 | givinostat 0.043

SLC39A7 (UniProt Q92504)
inactive: [1] -0.082 | [2] 0.085 | [3] -0.058 | [4] 0.016 | Nexturastat A 0.012 | vemurafenib -0.106 | [5] 0 | [6] -0.09 | givinostat -0.06 | barasertib -0.02

Source: the supplement of paper PMC10849652
